Test results published in patent US12648952B2, “Methods of treatment using ICAM-modulating agents” (AVM Biotechnology, LLC, priority 2020, dated 2026).
Where two headings read alike, the source gives them in different places. At least one compound was matched to its structure with a doubt left.

Assays:
whole blood = assay: Ex vivo whole blood incubation, immune cell numbers (Study 6); type: cell-based, mouse or human
Description: The profound in vivo activity that is observed in naïve mice and in cancer models must therefore be mediated through the mobilized supercharged Natural Killer T cells, T cells and dendritic cells after AVM0703 HED 6 mg/kg and higher.

[1] = test system: lymphocytes, monocytes, NKT cells, T cells, dendritic cells; assay: In vivo immune cell mobilisation and ablation after high dose glucocorticoid; design: species or system mice; settings: 6 hours after dosing
Text: High doses of glucocorticoid exert powerful biological effects that will contribute to the treatment of lymphocyte-mediated diseases and cancers, as well as microbial diseases. […] This cell type is discussed in greater detail below.
CD4CD8 double positivity on CD3 T lymphocytes indicates a cytotoxic T cell. […] In vivo only lymphocytes, monocytes, some neutrophils and cancer cells have been ablated.
AVM_NKT cells are NKp46+ and Ly6G positive, indicating the potential to directly kill targets as well as to engulf them. The typical AVM_NKT summarized above are not CD1d restricted. […] In vivo, glucocorticoids ablate lymphocytes other than NK and NKT cells, and monocytes, within 6 hours after oral dosing of naïve mice. In tumor models the novel NKT and T cell are not observed in the blood. However, within 48 hours of dosing NKp46+ cells and Ly6G+ cells, which are not macrophages as they are negative for F4/80, can be found in formations within the tumors, surrounding regions of remaining viable tumor. This indicates the functional potency of these cells. In the tumor setting, the AVM novel immune cells are not observed in the blood. They appear to preferentially home to the abnormal cells, in this case cancer cells, and circulating normal monocytes and neutrophils are not depleted as they are in the naïve setting.

[2] = test system: peripheral blood T and B lymphocytes; settings: cited from earlier work
ICAM3 = settings: cited from earlier work
[3] = single oral 0.24 mg/kg dose (Fauci et al 1976)

Row | SMILES | numbers of lymphocytes, monocytes, eosinophils, basophils in whole blood (whole blood; 500 μM dexamethasone base or 50 RU486, 16 hr, room temperature) | lymphocyte-killing activity in whole blood (whole blood; 500 μM dexamethasone base or 50 RU486 alone) | neutrophils in whole blood (whole blood; 50 RU486, 16 hr, room temperature) | ablation of lymphocytes, monocytes, some neutrophils and cancer cells [1] | acute oral dose necessary to reduce peripheral blood T and B cells ([2]; 24-48 hours after administration (PCT/US2019/054395)) | return of peripheral blood T and B cells to baseline levels ([2]; after acute oral dosing of 3 mg/kg or greater (PCT/US2019/054395)) | beginning of recovery of peripheral blood T and B lymphocytes [2, 3] | return of peripheral blood T and B lymphocytes to normal levels [2, 3] | suppression of peripheral blood T and B lymphocytes [2, 3] | ICAM3 expression on eosinophils (ICAM3; 100 pM to 1 μM) | shedding of ICAM3 from eosinophils (ICAM3; 0.01 micromolar, near maximal) | shedding of ICAM3 from eosinophils (ICAM3; after 24 hours, 0.1 nanomolar up to 1 micromolar) | shedding of ICAM3 from eosinophils (ICAM3; two logs additional dexamethasone over 0.01 micromolar)
1 | CC#C[C@]1(O)CC[C@H]2[C@@H]3CCC4=CC(=O)CCC4=C3[C@@H](c3ccc(N(C)C)cc3)C[C@@]21C [RU486] | no change in numbers | no killing activity on lymphocytes | non-significant increase |  |  |  |  |  |  |  |  |  | 
2 | C[C@@H]1C[C@H]2[C@@H]3CCC4=CC(=O)C=C[C@]4(C)[C@@]3(F)[C@@H](O)C[C@]2(C)[C@@]1(O)C(=O)CO [dexamethasone] |  |  |  | Almost complete ablation | ≥ 3 mg/kg | 5 to 28 days | 12 h | ≤ 24 h | 80% | decreased | 28% | 28-33% | 28%
